Consider 42 sequences from publication PMC7819943, “Rice protein-binding microarrays: a tool to detect cis-acting elements near promoter regions in rice”.

The chains behind the UniProt entries cited, without tags or fusion partners.
UniProt Q0JBA9, entry or part of it: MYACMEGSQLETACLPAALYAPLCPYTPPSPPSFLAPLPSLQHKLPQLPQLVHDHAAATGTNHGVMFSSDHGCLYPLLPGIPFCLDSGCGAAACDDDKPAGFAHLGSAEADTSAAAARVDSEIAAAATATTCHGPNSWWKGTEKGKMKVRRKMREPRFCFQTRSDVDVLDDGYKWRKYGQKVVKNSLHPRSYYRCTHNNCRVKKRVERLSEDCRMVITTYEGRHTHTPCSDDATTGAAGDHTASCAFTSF

The other results are listed elsewhere or left out.

This assay concerns the target OsWRKY34 (Oryza sativa, UniProt Q0JBA9 1-250). The assay can be described thus: protein-binding microarray (RPBM); PBS, 2% BSA, 51.3 ng/ul salmon testes DNA, 50 uM zinc acetate, 200 nM TF, 25 C, 1 h; high values mean tight binding. The settings on record: protein: recombinant; tags: N-terminal polyhistidine and DsRed monomer fusion (pET32a); label: CyDye5-dUTP incorporated in the synthesized complementary strand; 3' TTTTT single-stranded linker to array surface; dsDNA, one strand shown. In a few lines: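 Polyhistidine-tagged DsRed fusions of transcription factors, joined at the N-terminus, were expressed in E. coli BL21-CodonPlus and isolated on Ni–NTA. They were incubated at 200 nM for 1 h at 25 °C on a custom Agilent array, double-stranded and BSA-blocked, in PBS with 2% BSA, salmon testes DNA and 50 µM zinc acetate. The binding signal is per-feature fluorescence intensity (arbitrary units) read on an Axon 4000B scanner after washing.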
Take “AATTCTCTATCGACACCTACATTATTGACAAAAGCATCTCCGGAGTCACCTAGTGCAG”: the binding signal is 9420 fluorescence intensity (a.u.).
The value for “CTGTAAAGTTTGTGTGGGTGGGCTCAGGCCTGTGGTTGTACGGAGTCACCTAGTGCAG” was 13900 fluorescence intensity (a.u.); that for “AGGTTTTTTCAAAATTTTTAACACAATTGTACTACATTTTCGGAGTCACCTAGTGCAG” was 8240 fluorescence intensity (a.u.).
The value for “CCGGTCCAAAGCCTCGTTTGATCATGGTCTTTTGCCAATACGGAGTCACCTAGTGCAG” was 9640 fluorescence intensity (a.u.); that for “CACGTGGACCACTGTATTCACACTTTTTGATCGATAAGCACGGAGTCACCTAGTGCAG” was 9020 fluorescence intensity (a.u.).
As for “CGCGGTCCTAAATGGGCCAGCCCACTATTTGTTTTGCCCACGGAGTCACCTAGTGCAG”, the figure is 8580 fluorescence intensity (a.u.); as for “GTATTTTAATGTATGACATTGTTGACTTTTTGATTAACGTCGGAGTCACCTAGTGCAG”, 13000 fluorescence intensity (a.u.).
Take “AATATGTGTACGTTTAGTTTCCTGCCAAATTTTGGTAACTCGGAGTCACCTAGTGCAG”: the binding signal was 8990 fluorescence intensity (a.u.).
The value for “TCGGTTTAGATTTTGCCTTTTTTTAAGTATGTTTTGCTCACGGAGTCACCTAGTGCAG” was 8410 fluorescence intensity (a.u.).
The value for “CTCTCTCTGTTTCTACATAGTTGATACCGTTGATTTTTTACGGAGTCACCTAGTGCAG” was 10600 fluorescence intensity (a.u.).
“ACCGCCAAGAGCCAGAGCCCACCCCGCGTCGCGCGCGCAACGGAGTCACCTAGTGCAG”: the binding signal was 8180 fluorescence intensity (a.u.).
Consider “CCGGCGAGCCCTCCACCGCCGCCGCCGCCGCCGCGAGATGCGGAGTCACCTAGTGCAG”, for which the binding signal is 8350 fluorescence intensity (a.u.).
The value for “TGTGGAGTTGTGGTGAGTGTTTGACGAATTTTTTTTTTTTCGGAGTCACCTAGTGCAG” was 8900 fluorescence intensity (a.u.); that for “CGGTTGCGGGTGGGCAGCGGCAGCGTCGCCGGCTGGGGCGCGGAGTCACCTAGTGCAG” was 9840 fluorescence intensity (a.u.).
The value for “TTGGGAATATCTATGTTTCAGCAACGTTGACTTAATTGTTCGGAGTCACCTAGTGCAG” was 14000 fluorescence intensity (a.u.); that for “TTACTACTCTTTTCTTTGCCCATTACTCTACTCCACTGATCGGAGTCACCTAGTGCAG” was 10300 fluorescence intensity (a.u.); that for “ATCTCTCGCCGCACCGCATCCACGCCGCGTCCCACTTCGCCGGAGTCACCTAGTGCAG” was 8700 fluorescence intensity (a.u.).
As for “TCGTCGCCATCGCCATCGCCGCCGCCGCCGCCGCCGCAGGCGGAGTCACCTAGTGCAG”, the figure is 12600 fluorescence intensity (a.u.); as for “GATTTTCACTTGTGGTCCTAGACTCACCGTCGGCGAAAATCGGAGTCACCTAGTGCAG”, 8600 fluorescence intensity (a.u.); as for “CCTGTGTGTTGGTGCTGTCGGTATGTGGGTGGTGGTATTTCGGAGTCACCTAGTGCAG”, 14600 fluorescence intensity (a.u.).
Take “CACACATGCGCAGCCGCGCCTCCACTTCTCCTCCACACTTCGGAGTCACCTAGTGCAG”: the binding signal was 11500 fluorescence intensity (a.u.).
With “CATTTGTTTGTTTGTGTTATTCTCGGTGCACTAAGAATAGCGGAGTCACCTAGTGCAG”, the binding signal was 9360 fluorescence intensity (a.u.).
For the sequence “TACTTAGAAGTCTGTTGGAGGGCTGATTTTTACCAAATTCCGGAGTCACCTAGTGCAG”, the binding signal was 15100 fluorescence intensity (a.u.).
As for “ACTCTTTTTATTTTTGGAGGGTGCTCTATCCAAAGGCCCCCGGAGTCACCTAGTGCAG”, the figure is 8380 fluorescence intensity (a.u.).
In the case of “TTGGCCTTTTGAAAGGCTTGGGTTATATTTGGGCTTTTATCGGAGTCACCTAGTGCAG”, the binding signal is 9230 fluorescence intensity (a.u.).
As for “TGGAGCTGGTTTTTGGGTGGTGTTTTCTCTGTGATCGTGGCGGAGTCACCTAGTGCAG”, the figure is 9760 fluorescence intensity (a.u.); as for “GTCTCATTGTCCTCTAACGTGTGTCACTAACATATAGTTCCGGAGTCACCTAGTGCAG”, 8100 fluorescence intensity (a.u.); as for “TTTATGTAATATATACTCTCGGACCTGTTTGTTTGTTTTTCGGAGTCACCTAGTGCAG”, 10200 fluorescence intensity (a.u.).
“CGCGTCACCACCCTTCCCTTCCCACCACTTTCCTTCTCTCCGGAGTCACCTAGTGCAG”: the binding signal was 8200 fluorescence intensity (a.u.).
With “GATCAGACACGCCGAAAGTGTCTTCGTCTCTTTCTAATCACGGAGTCACCTAGTGCAG”, the binding signal was 8820 fluorescence intensity (a.u.).
As for “TTACTCTATTCATGGCTTTTCCAAGCTTGTCGTGCCCGTACGGAGTCACCTAGTGCAG”, the figure is 8230 fluorescence intensity (a.u.).
With “GTGGCATCAATTATCTTCTCGACTAGCGTCGCCCAAATCTCGGAGTCACCTAGTGCAG”, the binding signal is 8040 fluorescence intensity (a.u.).
Regarding “ATGTGTATGATGTGTTTGTTTATGTGTGGACTTTATAATACGGAGTCACCTAGTGCAG”, the binding signal was 9750 fluorescence intensity (a.u.).
As for “TGTTTATCACATGTTTTGTTACGCCAAATGGAGTGCCATTCGGAGTCACCTAGTGCAG”, the figure is 8390 fluorescence intensity (a.u.); as for “CCATTTTCCCTTTTACATGTGTCGAATTTTTATTAGGCTTCGGAGTCACCTAGTGCAG”, 12700 fluorescence intensity (a.u.); as for “GCACCACCGCCTTCGGTCAATAGGAGTAGGGTTATTACCCCGGAGTCACCTAGTGCAG”, 8250 fluorescence intensity (a.u.).
As for “ACTTTTTTACATGACTTCACTAGATTGCTCATTCTTTCTCCGGAGTCACCTAGTGCAG”, the figure is 8120 fluorescence intensity (a.u.); as for “CCCCTGTGCCACCCCAATTCAATTTTGATTTTTTTTTAAACGGAGTCACCTAGTGCAG”, 8080 fluorescence intensity (a.u.).
As for “GTCGAATCGAATTAACCTTTTATTATTCTTTATTATTTTGCGGAGTCACCTAGTGCAG”, the figure is 9080 fluorescence intensity (a.u.); as for “CTAATTGCATAGACGTAATATTTGTGGACTTTTTTTTTCTCGGAGTCACCTAGTGCAG”, 12900 fluorescence intensity (a.u.).
“TGTTGTTTCTATCCATCTCAGGCCAGCTTTGCAAACGACTCGGAGTCACCTAGTGCAG”: the binding signal is 10900 fluorescence intensity (a.u.).
The value for “CACTATGATTATTGTTGTTACACTATCAGCCTCTGCTCAACGGAGTCACCTAGTGCAG” was 8360 fluorescence intensity (a.u.).
